# Results as given in patent publication US6609014B1, “Use of PDT to inhibit intimal hyperplasia” (QLT Inc., priority 1999, dated 2003).
# “Also recorded” adds a separate entry of the source.
# Tested on: SMCs in the vein wall
# Assay: alpha-smooth muscle actin immunostaining of AV fistula veins 48 hours after PDT
# Format: in vivo, Domestic swine
# Settings: 40 minutes OR light
substance,measurement,setting,value
benzoporphyrin derivative monoacid ring A [BPD-MA],"Mean Percent of the Total Tissue Area Which was α-actin Positive, PDT, BLOCK 1",0.15 mg BPD-MA (0.15 mg/2 mL),1.94%
same,"Mean Percent of the Total Tissue Area Which was α-actin Positive, PDT, BLOCK 2",0.15 mg BPD-MA (0.15 mg/2 mL),3.06%
same,"Mean Percent of the Total Tissue Area Which was α-actin Positive, PDT, BLOCK 3",0.15 mg BPD-MA (0.15 mg/2 mL),2.81%
same,"Area of the veins stained positively for SMC, PDT-treated vs control",0.15 mg BPD-MA,No significant difference; also recorded: minor differences
